PubChem BioAssay AID1259308, NCATS, 2017
In all, the deposit lists about 59,000 reagents; below is a part drawn at random. About 1,510 of all reagents (2.6%) were called active. 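Calls use total luciferase alone and ignore viability, so some active siRNAs may act by altering cell number.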 Unmarked entries are inactive. The numbers tell different reagents against one gene apart.

- Aim: 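Genes whose loss raises luciferase production in HEK293 cells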 (primary screen)
- Cells: human HEK293 embryonic kidney cells stably expressing firefly luciferase (HEK-CMV-Luc2-Hygro)
- Knock-down reagent: single siRNA against human genes, 0.8 pmol siRNA per well
- Time to read-out: 72 h
- Measured: 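Luciferase light (ONE-Glo) measured on one replicate plate set and viability (CellTiter-Glo) on the other, scaled to a negative control siRNA, with robust z-scores and luciferase per cell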
- Reading the numbers: total luciferase, z-score and total luciferase, % of control: higher = more reporter protein produced; luciferase per cell, z-score: higher = more reporter output per viable cell; viable cells, % of control: higher = more viable cells
- Call rule: 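An siRNA counts as active if its total luciferase robust z-score exceeds 3; genes with two or more such siRNAs out of three were retested with fresh siRNAs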
- Meaning of the calls: active = raised luciferase; inactive = no rise

no.	Gene	reagent	total luciferase, z-score	total luciferase, % of control	luciferase per cell, z-score	viable cells, % of control
1	ZNF219 (GeneID 51222)	1	0.593	93.7	0.156	100
2	ZNF219 (GeneID 51222)	2	-1.28	56.4	-1.45	92.5
3	ZNF219 (GeneID 51222)	3	1.49	111	0.79	101
4	MEOX1 (GeneID 4222)	1	-0.0721	80.5	-0.288	97
5	MEOX1 (GeneID 4222)	2	-0.802	65.9	-0.0993	75.6
6	MEOX1 (GeneID 4222)	3	2.88	139	3.36	64.2
7	MAD1L1 (GeneID 8379)	1	-1.09	60.3	-0.523	77.3
8	MAD1L1 (GeneID 8379)	2	-1.47	52.6	-0.366	64.7
9	MAD1L1 (GeneID 8379)	3	0.411	90.1	0.817	81.2
10	CAPN12 (GeneID 147968)	1	-1.35	55.1	-1.74	97.3
11	CAPN12 (GeneID 147968)	2	0.855	98.9	0.615	94
12	CAPN12 (GeneID 147968)	3	0.233	86.5	0.884	76.6
13	OTULINL (GeneID 54491)	1	-1.32	55.6	-1.22	85.6
14	OTULINL (GeneID 54491)	2	0.377	89.4	0.393	90
15	OTULINL (GeneID 54491)	3	-0.845	65.1	-1.36	104
16	FANCD2 (GeneID 2177)	1	1.44	111	1.6	81.1
17	FANCD2 (GeneID 2177)	2	-1.4	54	-1.13	81.2
18	FANCD2 (GeneID 2177)	3	-0.397	74	-0.895	105
19	HEY1 (GeneID 23462)	1	0.167	85.2	0.494	83.6
20	HEY1 (GeneID 23462)	2	0.0266	82.4	-0.596	108
21	HEY1 (GeneID 23462)	3	-0.91	63.8	-0.528	81.9
22	PTPN14 (GeneID 5784)	1	-1.84	45.4	-0.476	57.5
23	PTPN14 (GeneID 5784)	2	-1.11	59.7	-0.291	72.1
24	PTPN14 (GeneID 5784)	3	0.645	94.7	-0.26	113
25	N4BP2L2 (GeneID 10443)	1	-0.381	74.3	-0.469	93.9
26	N4BP2L2 (GeneID 10443)	2	0.211	86.1	0.711	79.8
27	N4BP2L2 (GeneID 10443)	3	1.15	105	0.605	99.8
28	LAMA1 (GeneID 284217)	1	1.02	102	1.19	83.5
29	LAMA1 (GeneID 284217)	2	0.86	99	0.846	88.5
30	LAMA1 (GeneID 284217)	3	-0.828	65.4	-0.883	92.2
31	GZMK (GeneID 3003)	1	0.478	91.4	-0.0421	103
32	GZMK (GeneID 3003)	2	4.3 (active)	167	3.69	70.7
33	GZMK (GeneID 3003)	3	1.85	119	1.67	85.5
34	EMILIN3 (GeneID 90187)	1	1.76	117	1.01	100
35	EMILIN3 (GeneID 90187)	2	-0.378	74.4	2.48	43.2
36	EMILIN3 (GeneID 90187)	3	0.404	89.9	0.17	96.1
37	CYP4F11 (GeneID 57834)	1	1.9	120	1.61	87.6
38	CYP4F11 (GeneID 57834)	2	0.408	90	-0.393	112
39	CYP4F11 (GeneID 57834)	3	-0.485	72.2	-0.375	89.1
40	ZMYM1 (GeneID 79830)	1	-0.142	79.1	0.0191	87.9
41	ZMYM1 (GeneID 79830)	2	-0.104	79.8	-0.545	103
42	ZMYM1 (GeneID 79830)	3	0.125	84.4	-0.856	118
43	CT83 (GeneID 203413)	1	0.535	92.5	1.85	63.5
44	CT83 (GeneID 203413)	2	2.16	125	1.46	94.9
45	CT83 (GeneID 203413)	3	1.13	104	1.09	87.4
46	SAR1A (GeneID 56681)	1	0.682	95.5	3.94	37.8
47	SAR1A (GeneID 56681)	2	-3.22	17.9	-4.68	68.8
48	SAR1A (GeneID 56681)	3	0.211	86.1	-0.161	100
49	NOX4 (GeneID 50507)	1	0.0999	83.9	-0.239	99.8
50	NOX4 (GeneID 50507)	2	-1.92	43.8	-1.76	77.9
51	NOX4 (GeneID 50507)	3	-1.2	58	-1.38	93.1
52	CACNG7 (GeneID 59284)	1	2.46	131	1.54	97.5
53	CACNG7 (GeneID 59284)	2	0.403	89.9	0.555	86.8
54	CACNG7 (GeneID 59284)	3	0.761	97	0.575	93.2
55	LSM8 (GeneID 51691)	1	1.03	102	2.65	56.9
56	LSM8 (GeneID 51691)	2	1.39	110	1.62	79.8
57	LSM8 (GeneID 51691)	3	0.084	83.6	1.16	68.8

Individual results from the list:
For “viable cells, % of control”, ZNF219 (GeneID 51222) #3 shows 101
EMILIN3 (GeneID 90187) #2, total luciferase, z-score → -0.378
For “total luciferase, z-score”, MEOX1 (GeneID 4222) #3 shows 2.88
